Chains of the proteins cited; added tags and fusions are not shown. Lines headed by an entry give the natural chain unless they say otherwise; changes in a name come on top.
UniProt Q9C5T4: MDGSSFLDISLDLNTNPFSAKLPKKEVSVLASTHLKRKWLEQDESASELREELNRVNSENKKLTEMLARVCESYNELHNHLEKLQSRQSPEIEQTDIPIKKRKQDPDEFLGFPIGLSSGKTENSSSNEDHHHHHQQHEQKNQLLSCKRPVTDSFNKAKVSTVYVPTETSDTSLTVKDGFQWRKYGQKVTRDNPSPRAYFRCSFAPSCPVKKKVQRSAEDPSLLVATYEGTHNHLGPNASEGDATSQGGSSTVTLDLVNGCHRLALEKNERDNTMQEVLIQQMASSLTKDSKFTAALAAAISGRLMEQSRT

According to PMC5014153:

Experiments:
[1] = target: T1, 6xHis-WRKY40 (UniProt Q9SAH7); experiment: EMSA; conditions: 25 mM Hepes pH 8.0, 40 mM KCl, 5 mM MgCl2, 1 mM DTT, 1 mM EDTA, 8% glycerol, 50 ng protein, 20 fmol probe, 30 min at 28 C, native PAGE, recombinant protein, residues 1-302, protein details: N-terminal Trx, HRV 3C site (pET48b), label: 5' biotin on each strand
T1 sequence (looked up): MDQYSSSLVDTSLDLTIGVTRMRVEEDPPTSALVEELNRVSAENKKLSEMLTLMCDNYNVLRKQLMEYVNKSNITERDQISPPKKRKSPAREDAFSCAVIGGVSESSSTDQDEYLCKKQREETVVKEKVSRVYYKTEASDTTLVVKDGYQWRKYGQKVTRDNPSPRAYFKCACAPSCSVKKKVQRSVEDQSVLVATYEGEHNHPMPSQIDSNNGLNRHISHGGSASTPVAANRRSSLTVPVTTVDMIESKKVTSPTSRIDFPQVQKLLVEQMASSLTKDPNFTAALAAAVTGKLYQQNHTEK

[2] = target: 6xHis-WRKY18 (UniProt Q9C5T4); experiment: EMSA; conditions: 25 mM Hepes pH 8.0, 40 mM KCl, 5 mM MgCl2, 1 mM DTT, 1 mM EDTA, 8% glycerol, 50 ng protein, 20 fmol probe, 30 min at 28 C, native PAGE, recombinant protein, residues 1-310, protein details: N-terminal Trx, HRV 3C site (pET48b), label: 5' biotin on each strand

Q: Does “TTGATGTTACTCGTCTAGTTAAACTTAAATTGCAAGATATTGTATTATTTTACAAAAACCAAAATTTGACTGGCTTGGCT (double strand) [ProCRK5-1 mW2/W3]” bind [1]?
A: binds more weakly

Q: Does “TTGATGTTACTCGTCTAGTTAAACTTAAATTGCAAGATATTGTATTATTTTACAAAAACCAAAATTTGACTGGCTTGGCT (double strand) [ProCRK5-1 mW2/W3]” bind [2]?
A: binds more weakly

The comparison behind a weaker result is the experiment's own reference, which may not be listed here. For some assays here: Where a protein sequence is shown, tags need not be part of it.
